Results deposited as PubChem BioAssay AID1053208 (Peter MacCallum Cancer Centre, 2014).

- Aim: 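Synthetic lethal interactions between gene loss and doxorubicin in osteosarcoma cells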 (primary screen)
- System: mouse osteosarcoma cells, early-passage culture from an engineered mouse model of fibroblastic bone tumour
- Knock-down reagent: siRNA pool against mouse genes, 40 nM
- Time to read-out: about 120 h (48 h before drug, then 72 h with drug)
- Treatment: doxorubicin 100 nM for 72 h, roughly 30-40% inhibitory dose
- Detection: 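Viability read as ATP luminescence after 72 h of 100 nM doxorubicin or none, duplicate wells averaged, scaled to non-targeting siRNA, then expressed as robust z-scores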
- Scale: viability z-score with doxorubicin: higher = more viable cells under doxorubicin; viability z-score without drug: higher = more viable cells with knock-down alone
- Active means: 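Called active if knock-down leaves viability unchanged without drug (z within -2 to 2) but lowers it with doxorubicin (z at or under -2)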
The deposit covers about 17,000 reagents; shown is a part drawn at random. 788 of all reagents (4.7%) were called active. 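Calls rest on z-score classes alone; an extra cut-off of viability at most 70% of control was not applied to them.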 Entries without a mark were called inactive. Not all columns of the deposit are shown. Reagent sequences are not shown.

Silencing of Lrrc23 resulted in: combined z-score class no change with or without drug; viability z-score with doxorubicin 1.12; viability z-score without drug -0.17.
Or6c2 showed combined z-score class no change with or without drug; viability z-score with doxorubicin -0.67; viability z-score without drug -1.52.
Against Ttll9, the entry reads combined z-score class low cell count with doxorubicin only (active); viability z-score with doxorubicin -2.02; viability z-score without drug 1.85.
Against Rab30, the values are combined z-score class no change with or without drug; viability z-score with doxorubicin -0.67; viability z-score without drug -1.52.
Depletion of Drosha gave: combined z-score class no change with or without drug; viability z-score with doxorubicin 0.34; viability z-score without drug 1.18.
Celsr1 showed combined z-score class no change with or without drug; viability z-score with doxorubicin -1.12; viability z-score without drug -0.17.
Against Atg7 the deposit lists combined z-score class no change with or without drug; viability z-score with doxorubicin -0.56; viability z-score without drug -0.17.
Tpbpb scored combined z-score class no change with or without drug; viability z-score with doxorubicin 0.34; viability z-score without drug -0.17.
Wnt8b scored combined z-score class no change with or without drug; viability z-score with doxorubicin 0.67; viability z-score without drug 0.34.
After knock-down of Chd8, the record shows combined z-score class no change with or without drug; viability z-score with doxorubicin 0.45; viability z-score without drug -0.51.
Against Exph5, the entry reads combined z-score class no change with or without drug; viability z-score with doxorubicin 1.24; viability z-score without drug 1.52.
For Fastkd2, the entry reads combined z-score class no change with or without drug; viability z-score with doxorubicin 0.67; viability z-score without drug -0.17.
With knock-down of Cadm3, the record shows combined z-score class no change with or without drug; viability z-score with doxorubicin 0.22; viability z-score without drug 0.67.
After knock-down of Gpr157 the results were combined z-score class no change with or without drug; viability z-score with doxorubicin 1.01; viability z-score without drug 1.52.
Against Gsdmc3 the deposit lists combined z-score class no change with or without drug; viability z-score with doxorubicin 1.46; viability z-score without drug 1.69.
Knock-down of Cbl gave: combined z-score class no change with or without drug; viability z-score with doxorubicin 1.69; viability z-score without drug 0.17.
Depletion of A830039N20Rik gave: combined z-score class no change with or without drug; viability z-score with doxorubicin 0.22; viability z-score without drug -0.17.
Silencing of Asic2 gave: combined z-score class no change with or without drug; viability z-score with doxorubicin 0.67; viability z-score without drug 0.17.
Against Or5b121, the values are combined z-score class no change with or without drug; viability z-score with doxorubicin 0; viability z-score without drug 1.52.
With knock-down of Ms4a1 the results were combined z-score class no change with or without drug; viability z-score with doxorubicin 0.22; viability z-score without drug -1.85.

4 entries already listed, sorted by “viability z-score with doxorubicin”, lowest first.
Atg7: combined z-score class = no change with or without drug; viability z-score with doxorubicin = -0.56; viability z-score without drug = -0.17
Tpbpb: combined z-score class = no change with or without drug; viability z-score with doxorubicin = 0.34; viability z-score without drug = -0.17
Chd8: combined z-score class = no change with or without drug; viability z-score with doxorubicin = 0.45; viability z-score without drug = -0.51
Wnt8b: combined z-score class = no change with or without drug; viability z-score with doxorubicin = 0.67; viability z-score without drug = 0.34

The listing continues:
Against Or5ak24, the entry reads combined z-score class no change with or without drug; viability z-score with doxorubicin -0.45; viability z-score without drug -0.51.
Emc6 scored combined z-score class no change with or without drug; viability z-score with doxorubicin -0.45; viability z-score without drug -0.34.
Against Pim1 the deposit lists combined z-score class high cell count without drug only; viability z-score with doxorubicin 0.67; viability z-score without drug 3.2.
After knock-down of Card10 the results were combined z-score class no change with or without drug; viability z-score with doxorubicin -0.67; viability z-score without drug -0.51.
After knock-down of Cep78, the screen gave combined z-score class no change with or without drug; viability z-score with doxorubicin 0.34; viability z-score without drug 1.35.
With knock-down of Rps27, the record shows combined z-score class low cell count with and without drug; viability z-score with doxorubicin -4.95; viability z-score without drug -2.19.
A930104D05Rik gave combined z-score class no change with or without drug; viability z-score with doxorubicin 0.67; viability z-score without drug 1.85.
Or52h7 gave combined z-score class no change with or without drug; viability z-score with doxorubicin -0.22; viability z-score without drug -0.17.
Ntsr1 gave combined z-score class no change with or without drug; viability z-score with doxorubicin -1.01; viability z-score without drug -1.85.
With knock-down of Or7a35, the screen gave combined z-score class no change with or without drug; viability z-score with doxorubicin -0.45; viability z-score without drug -0.17.
With knock-down of Pcdhgb1 the results were combined z-score class low cell count with doxorubicin only (active); viability z-score with doxorubicin -2.7; viability z-score without drug 0.34.
For AI854703, the values are combined z-score class no change with or without drug; viability z-score with doxorubicin -0.45; viability z-score without drug 0.
Rdh11 showed combined z-score class no change with or without drug; viability z-score with doxorubicin 0; viability z-score without drug 0.51.
Against Or2aj5 the deposit lists combined z-score class no change with or without drug; viability z-score with doxorubicin -0.79; viability z-score without drug -0.51.
Slc16a9 gave combined z-score class no change with or without drug; viability z-score with doxorubicin 0.22; viability z-score without drug -0.84.
Against Mgat1 the deposit lists combined z-score class no change with or without drug; viability z-score with doxorubicin 0.11; viability z-score without drug 0.84.
